The results in this text go back to paper PMC7417555, “Comparative structural analyses and nucleotide-binding characterization of the four KH domains of FUBP1”.

One data set addresses T1, FUBP1 KH2 (UniProt Q96AE4).
T1 sequence (looked up, limits assumed): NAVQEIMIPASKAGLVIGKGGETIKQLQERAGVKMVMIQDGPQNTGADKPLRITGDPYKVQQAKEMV
In words: EMSA. As to conditions: slight shift; native PAGE: 200 uM protein, 5x ssDNA, 25 mM HEPES pH 7.5, 50 mM NaCl, 0.5 mM TCEP, 4 C, 0.5x TBE (KH4 0.5x TAE); recombinant protein; protein details: His6 removed by TEV; single-stranded DNA. For orientation: Mobility shift assays separate free from complexed probe on a gel.

The target of another data set is T2, FUBP1 KH4 (UniProt Q96AE4).
T2 sequence (looked up, limits assumed): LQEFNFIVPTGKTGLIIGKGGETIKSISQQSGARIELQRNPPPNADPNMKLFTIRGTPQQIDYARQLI
In words: EMSA. The conditions noted are these: slight shift; native PAGE: 200 uM protein, 5x ssDNA, 25 mM HEPES pH 7.5, 50 mM NaCl, 0.5 mM TCEP, 4 C, 0.5x TBE (KH4 0.5x TAE); recombinant protein; single-stranded DNA.

Construct, isoform or probe ends are uncertain for at least one entry. Weaker means in comparison with the reference protein, sequence or condition of that experiment. Where a protein sequence is shown, tags need not be part of it.

Consider “TTTGTGTTAA [FUSE fragment 8, 10-mer (native PAGE)]”, for which the binding result in the data set with FUBP1 KH2 and with FUBP1 KH4 was “binds more weakly” each time.
